No constants are given. Whether binding was seen depends on the method and setting. Binding can be weak; no strength is given.
Columns and labels:
[1] = biological target: HA-TRIM28 (Tripartite motif-containing 28) (UniProt Q13263); assay: pull-down; in vitro pull-down: proteins expressed separately in HEK293T and enriched on antibody beads; Flag-tagged protein eluted with Flag peptide (100 µg/mL, 2 h, 4 °C) and incubated overnight at 4 °C with HA-tagged protein immobilised on HA beads; detected with anti-Flag; both purified
[2] = biological target: HA-GSDMD-CT (C-terminal domain of gasdermin D) (human) (UniProt P57764); assay: as above

Protein sequences, listed by entry. Tags and fused reporters are not part of them. Lines headed by an entry give the natural chain unless they say otherwise; changes in a name come on top.
UniProt Q13263: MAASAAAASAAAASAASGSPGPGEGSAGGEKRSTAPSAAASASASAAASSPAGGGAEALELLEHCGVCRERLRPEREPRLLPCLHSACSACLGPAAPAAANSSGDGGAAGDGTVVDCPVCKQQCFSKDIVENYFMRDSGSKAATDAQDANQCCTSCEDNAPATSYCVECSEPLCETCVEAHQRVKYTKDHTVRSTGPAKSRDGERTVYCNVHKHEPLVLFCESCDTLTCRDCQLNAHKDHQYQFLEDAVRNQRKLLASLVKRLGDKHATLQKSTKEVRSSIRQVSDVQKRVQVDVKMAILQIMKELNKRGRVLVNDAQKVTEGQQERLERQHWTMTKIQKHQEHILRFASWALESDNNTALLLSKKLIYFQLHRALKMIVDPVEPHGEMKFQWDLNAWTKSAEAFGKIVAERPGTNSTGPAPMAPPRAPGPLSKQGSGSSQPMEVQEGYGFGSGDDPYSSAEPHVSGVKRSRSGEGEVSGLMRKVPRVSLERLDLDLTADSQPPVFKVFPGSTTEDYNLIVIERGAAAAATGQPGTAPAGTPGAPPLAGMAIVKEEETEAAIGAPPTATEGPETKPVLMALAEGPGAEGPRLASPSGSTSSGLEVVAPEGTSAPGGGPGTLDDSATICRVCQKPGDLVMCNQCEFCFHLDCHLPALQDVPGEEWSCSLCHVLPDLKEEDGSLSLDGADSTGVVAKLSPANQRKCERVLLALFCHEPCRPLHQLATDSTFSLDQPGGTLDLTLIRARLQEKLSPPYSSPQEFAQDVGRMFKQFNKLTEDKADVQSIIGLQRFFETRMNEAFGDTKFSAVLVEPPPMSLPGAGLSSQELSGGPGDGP
UniProt P57764: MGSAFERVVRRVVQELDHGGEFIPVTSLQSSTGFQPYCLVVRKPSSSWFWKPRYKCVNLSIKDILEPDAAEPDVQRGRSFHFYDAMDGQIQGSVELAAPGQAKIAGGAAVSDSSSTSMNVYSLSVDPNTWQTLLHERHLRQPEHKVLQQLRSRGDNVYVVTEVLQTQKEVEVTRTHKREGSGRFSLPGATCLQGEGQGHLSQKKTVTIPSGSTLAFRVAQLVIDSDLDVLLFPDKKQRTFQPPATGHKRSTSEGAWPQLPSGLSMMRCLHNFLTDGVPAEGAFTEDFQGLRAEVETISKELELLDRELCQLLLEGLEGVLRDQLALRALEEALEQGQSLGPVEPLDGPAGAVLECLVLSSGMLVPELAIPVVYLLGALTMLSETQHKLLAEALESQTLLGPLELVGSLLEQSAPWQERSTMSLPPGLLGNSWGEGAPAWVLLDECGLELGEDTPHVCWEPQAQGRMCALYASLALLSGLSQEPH
UniProt O95786: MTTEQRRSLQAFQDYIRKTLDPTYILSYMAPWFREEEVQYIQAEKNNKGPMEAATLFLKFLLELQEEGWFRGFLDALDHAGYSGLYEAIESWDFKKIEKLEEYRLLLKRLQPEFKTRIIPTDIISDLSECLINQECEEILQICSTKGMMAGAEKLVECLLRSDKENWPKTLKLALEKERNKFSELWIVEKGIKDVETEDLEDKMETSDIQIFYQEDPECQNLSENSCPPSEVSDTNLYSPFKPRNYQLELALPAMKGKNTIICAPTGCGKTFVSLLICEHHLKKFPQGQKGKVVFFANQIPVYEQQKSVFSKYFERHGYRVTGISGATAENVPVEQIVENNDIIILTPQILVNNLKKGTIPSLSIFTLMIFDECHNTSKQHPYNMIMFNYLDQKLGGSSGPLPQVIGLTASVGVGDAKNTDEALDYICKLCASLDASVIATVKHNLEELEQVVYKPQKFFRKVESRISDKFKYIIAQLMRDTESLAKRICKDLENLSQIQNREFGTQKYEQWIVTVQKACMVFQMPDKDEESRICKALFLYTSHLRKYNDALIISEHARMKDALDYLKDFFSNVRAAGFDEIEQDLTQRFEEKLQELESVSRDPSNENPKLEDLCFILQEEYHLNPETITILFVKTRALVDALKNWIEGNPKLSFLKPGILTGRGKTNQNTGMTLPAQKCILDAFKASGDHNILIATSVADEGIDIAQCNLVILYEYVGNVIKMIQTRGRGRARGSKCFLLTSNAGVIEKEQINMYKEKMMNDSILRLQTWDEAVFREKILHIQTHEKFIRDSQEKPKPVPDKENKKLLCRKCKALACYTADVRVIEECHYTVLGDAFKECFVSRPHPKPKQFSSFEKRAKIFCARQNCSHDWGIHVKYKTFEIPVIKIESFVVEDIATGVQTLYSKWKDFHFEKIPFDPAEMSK
UniProt Q9UHD2: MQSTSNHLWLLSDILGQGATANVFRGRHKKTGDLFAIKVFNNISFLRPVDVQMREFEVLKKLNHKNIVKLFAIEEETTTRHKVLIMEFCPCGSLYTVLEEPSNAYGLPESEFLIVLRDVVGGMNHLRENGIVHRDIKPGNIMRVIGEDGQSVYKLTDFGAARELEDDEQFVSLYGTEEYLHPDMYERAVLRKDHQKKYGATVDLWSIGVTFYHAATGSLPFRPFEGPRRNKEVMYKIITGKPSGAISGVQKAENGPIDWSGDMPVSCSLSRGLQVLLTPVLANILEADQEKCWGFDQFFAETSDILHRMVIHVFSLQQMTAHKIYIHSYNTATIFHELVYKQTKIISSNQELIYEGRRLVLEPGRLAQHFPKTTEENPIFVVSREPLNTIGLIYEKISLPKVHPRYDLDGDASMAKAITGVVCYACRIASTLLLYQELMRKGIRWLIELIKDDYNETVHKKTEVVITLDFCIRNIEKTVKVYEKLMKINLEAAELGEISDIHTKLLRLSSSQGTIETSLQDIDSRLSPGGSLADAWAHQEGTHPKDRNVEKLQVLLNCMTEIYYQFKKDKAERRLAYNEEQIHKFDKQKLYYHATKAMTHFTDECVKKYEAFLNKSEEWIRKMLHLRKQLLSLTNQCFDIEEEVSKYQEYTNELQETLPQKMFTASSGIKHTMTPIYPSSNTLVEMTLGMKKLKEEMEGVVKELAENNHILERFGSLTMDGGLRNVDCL

binding [1]	binding [2]	Substance
binds	–	Flag-GSDMD-CT (C-terminal domain of gasdermin D) (from UniProt P57764) (domain or fragment)
–	binds	Flag-RIG-I (retinoic acid-inducible gene I) (from UniProt O95786 1-925)
–	binds	Flag-TBK1 (tank-binding kinase) (from UniProt Q9UHD2 1-729) (enzyme)

— PMC12412611
